Experiment [1] has as its target T1, phosphomevalonate kinase (PMVK), endogenous (human (endogenous in Hep3B and MHCC97L)) (UniProt Q15126).
T1 sequence: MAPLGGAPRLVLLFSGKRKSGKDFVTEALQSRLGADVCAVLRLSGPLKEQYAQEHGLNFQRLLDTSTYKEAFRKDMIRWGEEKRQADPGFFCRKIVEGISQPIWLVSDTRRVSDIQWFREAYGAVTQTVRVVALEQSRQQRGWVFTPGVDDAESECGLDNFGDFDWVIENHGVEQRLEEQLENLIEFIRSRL
Kind of experiment: co-IP; endogenous proteins in Hep3B and MHCC97L whole cell lysate; mouse anti-PMVK antibody for IP, mouse IgG as negative control; immunoblot.

Experiment [2] concerns the target T2, GST-PMVK fusion protein (human) (UniProt Q15126).
T2 sequence: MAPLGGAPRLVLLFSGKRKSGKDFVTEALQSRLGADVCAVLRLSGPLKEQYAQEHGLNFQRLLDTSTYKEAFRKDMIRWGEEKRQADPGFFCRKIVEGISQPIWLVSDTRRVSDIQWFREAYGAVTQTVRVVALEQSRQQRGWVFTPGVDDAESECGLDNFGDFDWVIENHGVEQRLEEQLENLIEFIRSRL
Kind of experiment: pull-down; GST-PMVK (or GST) bound to Sepharose beads, incubated with ACAT1 or GAD1 fusion proteins in 1 mL RIPA buffer at 4 °C for 4 h; immunoblot; both purified. For orientation: A western blot detects proteins with antibodies after separation by electrophoresis.

No constants are given. Whether binding was seen depends on the method and setting. For part of these data: Binding seen in cells or lysates may run through a third protein. Some entries that bind do so weakly or less than the wild type. For part of these data: Where a sequence is shown, tags or fusion partners need not be part of it.

This note sets out measurements from PMC11578309.

B1: glutamate decarboxylase 1 (GAD1), endogenous (enzyme, UniProt Q99259 1-594)
chain: MASSTPSSSATSSNAGADPNTTNLRPTTYDTWCGVAHGCTRKLGLKICGFLQRTNSLEEKSRLVSAFKERQSSKNLLSCENSDRDARFRRTETDFSNLFARDLLPAKNGEEQTVQFLLEVVDILLNYVRKTFDRSTKVLDFHHPHQLLEGMEGFNLELSDHPESLEQILVDCRDTLKYGVRTGHPRFFNQLSTGLDIIGLAGEWLTSTANTNMFTYEIAPVFVLMEQITLKKMREIVGWSSKDGDGIFSPGGAISNMYSIMAARYKYFPEVKTKGMAAVPKLVLFTSEQSHYSIKKAGAALGFGTDNVILIKCNERGKIIPADFEAKILEAKQKGYVPFYVNATAGTTVYGAFDPIQEIADICEKYNLWLHVDAAWGGGLLMSRKHRHKLNGIERANSVTWNPHKMMGVLLQCSAILVKEKGILQGCNQMCAGYLFQPDKQYDVSYDTGDKAIQCGRHVDIFKFWLMWKAKGTVGFENQINKCLELAEYLYAKIKNREEFEMVFNGEPEHTNVCFWYIPQSLRGVPDSPQRREKLHKVAPKIKALMMESGTTMVGYQPQGDKANFFRMVISNPAATQSDIDFLIEEIERLGQDL
For B1, the binding result in experiment [1] is listed as “binds”.

B2: acetyl-CoA acetyltransferase 1 (ACAT1), endogenous (enzyme, UniProt P24752 34-427)
chain: VSKPTLKEVVIVSATRTPIGSFLGSLSLLPATKLGSIAIQGAIEKAGIPKEEVKEAYMGNVLQGGEGQAPTRQAVLGAGLPISTPCTTINKVCASGMKAIMMASQSLMCGHQDVMVAGGMESMSNVPYVMNRGSTPYGGVKLEDLIVKDGLTDVYNKIHMGSCAENTAKKLNIARNEQDAYAINSYTRSKAAWEAGKFGNEVIPVTVTVKGQPDVVVKEDEEYKRVDFSKVPKLKTVFQKENGTVTAANASTLNDGAAALVLMTADAAKRLNVTPLARIVAFADAAVEPIDFPIAPVYAASMVLKDVGLKKEDIAMWEVNEAFSLVVLANIKMLEIDPQKVNINGGAVSLGHPIGMSGARIVGHLTHALKQGEYGLASICNGGGGASAMLIQKL
For the molecule B2, the binding entry in experiment [1] is “binds”.

B3: ACAT1 fusion protein (recombinant, for GST pull-down) (enzyme, UniProt P24752 34-427)
chain: VSKPTLKEVVIVSATRTPIGSFLGSLSLLPATKLGSIAIQGAIEKAGIPKEEVKEAYMGNVLQGGEGQAPTRQAVLGAGLPISTPCTTINKVCASGMKAIMMASQSLMCGHQDVMVAGGMESMSNVPYVMNRGSTPYGGVKLEDLIVKDGLTDVYNKIHMGSCAENTAKKLNIARNEQDAYAINSYTRSKAAWEAGKFGNEVIPVTVTVKGQPDVVVKEDEEYKRVDFSKVPKLKTVFQKENGTVTAANASTLNDGAAALVLMTADAAKRLNVTPLARIVAFADAAVEPIDFPIAPVYAASMVLKDVGLKKEDIAMWEVNEAFSLVVLANIKMLEIDPQKVNINGGAVSLGHPIGMSGARIVGHLTHALKQGEYGLASICNGGGGASAMLIQKL
With B3, the binding result in experiment [2] is listed as “binds”.
